Results are given in words; binding and its absence hold for the method and conditions named. Binding seen in cells or lysates may run through a third protein. A yes stands for co-enrichment or nearness to the bait. Other partners may have been found.
Molecular target: T1, HDAC8 (human (endogenous in HeLa and HEK 293 T)) (UniProt Q9BY41)
T1 sequence: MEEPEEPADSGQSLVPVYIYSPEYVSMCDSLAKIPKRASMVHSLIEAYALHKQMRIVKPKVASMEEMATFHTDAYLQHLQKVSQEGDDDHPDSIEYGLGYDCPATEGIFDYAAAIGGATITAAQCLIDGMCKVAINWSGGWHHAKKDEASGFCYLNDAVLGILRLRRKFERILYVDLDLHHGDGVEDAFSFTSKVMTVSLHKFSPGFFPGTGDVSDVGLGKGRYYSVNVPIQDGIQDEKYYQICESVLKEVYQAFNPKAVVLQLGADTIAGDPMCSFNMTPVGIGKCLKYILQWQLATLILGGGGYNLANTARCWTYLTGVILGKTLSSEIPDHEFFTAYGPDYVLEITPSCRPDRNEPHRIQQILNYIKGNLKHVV
Assay: affinity purification with mass spectrometry; HeLa lysate (approx. 500 μg total protein) with 2 μg anti-HDAC8 antibody overnight at 4 °C, Protein A beads; 10% SDS-PAGE, Coomassie; band excised, MALDI TOF-TOF, Mascot search

Chains of the proteins cited; added tags and fusions are not shown.
UniProt Q9BQE3: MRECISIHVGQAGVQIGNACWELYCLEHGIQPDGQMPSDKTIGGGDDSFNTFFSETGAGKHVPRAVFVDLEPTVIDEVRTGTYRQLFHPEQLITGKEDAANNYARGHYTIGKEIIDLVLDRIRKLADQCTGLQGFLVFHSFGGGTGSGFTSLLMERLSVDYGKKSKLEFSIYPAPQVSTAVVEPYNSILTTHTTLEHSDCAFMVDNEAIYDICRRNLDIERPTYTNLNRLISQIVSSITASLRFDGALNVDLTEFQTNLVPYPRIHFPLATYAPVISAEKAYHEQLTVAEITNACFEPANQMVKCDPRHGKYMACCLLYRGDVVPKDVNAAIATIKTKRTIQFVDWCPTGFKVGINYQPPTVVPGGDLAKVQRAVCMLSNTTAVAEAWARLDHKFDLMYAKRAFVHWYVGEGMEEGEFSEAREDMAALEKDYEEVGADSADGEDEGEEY

- binding: binds
Substance: Alpha tubulin (TUBA1-C, Human Alpha Tubulin chain 1 C isoform) (from UniProt Q9BQE3 1-449)

Reference: publication PMC5930436, “Overexpressed HDAC8 in cervical cancer cells shows functional redundancy of tubulin deacetylation with HDAC6” (Cell Communication and Signaling : CCS, 2018)
